Some of the results follow.
Legend:
Assay in all cases: log2 fold change, soluble protein after heating vs DMSO (PISA); higher = thermal stabilisation; K562 cells, 10 uM, 30 min; active = over 0.2 and 3.5 SD of the protein, either way, in both replicates (recomputed)
[1] = compound: CS(=O)(=O)c1ccc(-c2cnc(N)c(C(=O)Nc3ccccc3)n2)cc1
Summary of the method: (§1)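 For each measurement, 10 μM compound was applied for 30 min to K562 cells at 2×10^6 cells/mL. Aliquots were heated for 3 min across 48°C-58°C, pooled, and extracted in PBS with 0.5% NP-40 at 4°C; the supernatant after 21,000xg for 90 min was soluble protein. This was quantified by TMTpro 16plex LC-MS/MS with channel sums equalised, and thermal stability was reported relative to control samples from duplicates, on a log2 fold-change scale.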

By UniProt entry, the sequences of proteins in these tests, tags left out. Where a name states a change or a piece, a line headed by the entry shows the natural chain unless it says otherwise.
UniProt Q8NHP8: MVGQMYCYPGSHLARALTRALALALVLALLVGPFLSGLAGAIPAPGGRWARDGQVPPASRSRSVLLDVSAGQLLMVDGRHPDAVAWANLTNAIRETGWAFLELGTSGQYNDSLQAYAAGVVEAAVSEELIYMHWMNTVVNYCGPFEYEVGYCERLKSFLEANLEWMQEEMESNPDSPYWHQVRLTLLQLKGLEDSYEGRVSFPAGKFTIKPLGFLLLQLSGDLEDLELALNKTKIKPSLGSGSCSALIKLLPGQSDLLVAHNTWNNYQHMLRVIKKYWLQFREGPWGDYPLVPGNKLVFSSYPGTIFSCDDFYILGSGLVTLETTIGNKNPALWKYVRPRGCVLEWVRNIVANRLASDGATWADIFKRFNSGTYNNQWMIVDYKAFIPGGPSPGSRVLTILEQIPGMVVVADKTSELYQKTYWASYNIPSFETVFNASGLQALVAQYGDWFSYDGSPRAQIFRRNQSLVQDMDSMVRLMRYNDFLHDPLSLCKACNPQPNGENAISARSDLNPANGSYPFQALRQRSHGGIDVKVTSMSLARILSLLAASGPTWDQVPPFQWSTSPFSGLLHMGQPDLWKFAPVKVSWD
UniProt Q5JRX3: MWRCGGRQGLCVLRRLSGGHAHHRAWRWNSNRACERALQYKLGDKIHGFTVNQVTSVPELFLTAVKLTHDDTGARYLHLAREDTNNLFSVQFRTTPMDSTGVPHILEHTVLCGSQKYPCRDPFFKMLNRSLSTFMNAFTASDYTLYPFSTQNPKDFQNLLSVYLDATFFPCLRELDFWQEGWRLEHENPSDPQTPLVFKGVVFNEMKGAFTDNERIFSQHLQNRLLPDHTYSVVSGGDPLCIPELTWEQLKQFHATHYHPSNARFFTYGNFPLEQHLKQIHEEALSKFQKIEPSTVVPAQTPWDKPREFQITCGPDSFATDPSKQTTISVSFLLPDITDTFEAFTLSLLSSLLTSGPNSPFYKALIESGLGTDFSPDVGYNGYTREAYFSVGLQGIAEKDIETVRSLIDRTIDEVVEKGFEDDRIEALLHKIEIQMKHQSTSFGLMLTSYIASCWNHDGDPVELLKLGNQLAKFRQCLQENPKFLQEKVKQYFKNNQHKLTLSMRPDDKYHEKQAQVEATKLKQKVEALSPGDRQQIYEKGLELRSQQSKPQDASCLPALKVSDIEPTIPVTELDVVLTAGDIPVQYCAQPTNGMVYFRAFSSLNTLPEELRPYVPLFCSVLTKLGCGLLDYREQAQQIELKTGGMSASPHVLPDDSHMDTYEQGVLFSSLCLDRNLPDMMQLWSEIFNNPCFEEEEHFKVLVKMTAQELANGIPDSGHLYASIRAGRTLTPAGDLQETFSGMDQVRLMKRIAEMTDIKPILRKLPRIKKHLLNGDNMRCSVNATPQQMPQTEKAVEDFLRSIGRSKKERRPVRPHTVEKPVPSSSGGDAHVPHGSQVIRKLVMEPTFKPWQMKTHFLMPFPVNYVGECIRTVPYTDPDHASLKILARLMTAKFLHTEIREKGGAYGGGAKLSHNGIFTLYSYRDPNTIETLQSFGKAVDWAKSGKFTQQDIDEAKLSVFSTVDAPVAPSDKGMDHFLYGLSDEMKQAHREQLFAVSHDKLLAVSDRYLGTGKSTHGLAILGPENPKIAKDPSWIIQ
UniProt O60331: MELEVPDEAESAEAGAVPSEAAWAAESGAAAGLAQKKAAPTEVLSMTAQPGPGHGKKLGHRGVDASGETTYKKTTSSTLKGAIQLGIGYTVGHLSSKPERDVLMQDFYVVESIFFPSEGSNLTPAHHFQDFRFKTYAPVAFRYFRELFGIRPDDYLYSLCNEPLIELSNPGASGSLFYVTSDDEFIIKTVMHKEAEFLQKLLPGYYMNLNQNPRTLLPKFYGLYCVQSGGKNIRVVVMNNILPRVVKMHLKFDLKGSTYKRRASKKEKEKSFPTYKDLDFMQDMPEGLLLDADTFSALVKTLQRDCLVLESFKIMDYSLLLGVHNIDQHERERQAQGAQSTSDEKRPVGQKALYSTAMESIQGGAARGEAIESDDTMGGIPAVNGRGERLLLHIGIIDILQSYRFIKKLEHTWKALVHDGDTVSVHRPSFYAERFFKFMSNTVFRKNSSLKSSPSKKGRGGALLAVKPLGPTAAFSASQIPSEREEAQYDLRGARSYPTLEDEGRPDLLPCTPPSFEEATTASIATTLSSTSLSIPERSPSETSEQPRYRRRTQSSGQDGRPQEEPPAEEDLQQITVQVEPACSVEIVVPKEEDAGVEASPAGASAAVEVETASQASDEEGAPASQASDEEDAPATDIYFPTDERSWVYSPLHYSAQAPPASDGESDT
UniProt Q8TBF5: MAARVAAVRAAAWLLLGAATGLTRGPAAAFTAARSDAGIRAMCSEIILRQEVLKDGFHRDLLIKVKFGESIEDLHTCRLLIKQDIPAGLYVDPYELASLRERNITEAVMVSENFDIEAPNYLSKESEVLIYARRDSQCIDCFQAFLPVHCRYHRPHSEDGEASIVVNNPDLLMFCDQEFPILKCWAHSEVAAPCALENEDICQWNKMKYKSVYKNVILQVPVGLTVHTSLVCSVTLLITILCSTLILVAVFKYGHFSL
UniProt Q9BZM1: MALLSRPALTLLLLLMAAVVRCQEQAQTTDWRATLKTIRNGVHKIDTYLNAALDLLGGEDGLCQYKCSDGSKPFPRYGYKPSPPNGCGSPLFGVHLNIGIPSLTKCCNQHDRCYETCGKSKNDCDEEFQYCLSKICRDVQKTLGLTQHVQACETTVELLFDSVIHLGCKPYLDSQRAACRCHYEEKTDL
UniProt Q8NDX5: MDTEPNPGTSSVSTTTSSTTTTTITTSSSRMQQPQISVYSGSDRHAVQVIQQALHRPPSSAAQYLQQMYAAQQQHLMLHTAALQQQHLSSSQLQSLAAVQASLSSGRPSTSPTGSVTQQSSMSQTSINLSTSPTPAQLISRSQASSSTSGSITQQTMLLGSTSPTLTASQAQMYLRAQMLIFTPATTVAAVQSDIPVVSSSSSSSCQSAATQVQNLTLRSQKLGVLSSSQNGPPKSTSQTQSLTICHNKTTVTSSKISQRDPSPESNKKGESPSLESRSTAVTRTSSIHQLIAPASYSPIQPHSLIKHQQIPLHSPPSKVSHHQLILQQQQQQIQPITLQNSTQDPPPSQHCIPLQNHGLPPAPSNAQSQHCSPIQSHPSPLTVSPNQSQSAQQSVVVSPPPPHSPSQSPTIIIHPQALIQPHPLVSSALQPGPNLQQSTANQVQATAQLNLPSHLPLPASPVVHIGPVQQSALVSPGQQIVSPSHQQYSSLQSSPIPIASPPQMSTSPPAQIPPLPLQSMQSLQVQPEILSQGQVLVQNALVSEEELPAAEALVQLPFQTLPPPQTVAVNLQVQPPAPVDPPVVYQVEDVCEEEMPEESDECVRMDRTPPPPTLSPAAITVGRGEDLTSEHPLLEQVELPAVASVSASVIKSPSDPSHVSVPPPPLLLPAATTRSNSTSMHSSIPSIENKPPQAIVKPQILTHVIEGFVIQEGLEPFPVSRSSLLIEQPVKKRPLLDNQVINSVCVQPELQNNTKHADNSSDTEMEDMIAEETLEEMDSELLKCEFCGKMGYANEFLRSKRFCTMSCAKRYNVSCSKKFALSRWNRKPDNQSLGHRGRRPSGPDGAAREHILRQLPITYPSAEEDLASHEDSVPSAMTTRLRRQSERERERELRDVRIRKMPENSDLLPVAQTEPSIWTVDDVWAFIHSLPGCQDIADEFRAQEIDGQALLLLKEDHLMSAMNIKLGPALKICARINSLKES
UniProt P48736: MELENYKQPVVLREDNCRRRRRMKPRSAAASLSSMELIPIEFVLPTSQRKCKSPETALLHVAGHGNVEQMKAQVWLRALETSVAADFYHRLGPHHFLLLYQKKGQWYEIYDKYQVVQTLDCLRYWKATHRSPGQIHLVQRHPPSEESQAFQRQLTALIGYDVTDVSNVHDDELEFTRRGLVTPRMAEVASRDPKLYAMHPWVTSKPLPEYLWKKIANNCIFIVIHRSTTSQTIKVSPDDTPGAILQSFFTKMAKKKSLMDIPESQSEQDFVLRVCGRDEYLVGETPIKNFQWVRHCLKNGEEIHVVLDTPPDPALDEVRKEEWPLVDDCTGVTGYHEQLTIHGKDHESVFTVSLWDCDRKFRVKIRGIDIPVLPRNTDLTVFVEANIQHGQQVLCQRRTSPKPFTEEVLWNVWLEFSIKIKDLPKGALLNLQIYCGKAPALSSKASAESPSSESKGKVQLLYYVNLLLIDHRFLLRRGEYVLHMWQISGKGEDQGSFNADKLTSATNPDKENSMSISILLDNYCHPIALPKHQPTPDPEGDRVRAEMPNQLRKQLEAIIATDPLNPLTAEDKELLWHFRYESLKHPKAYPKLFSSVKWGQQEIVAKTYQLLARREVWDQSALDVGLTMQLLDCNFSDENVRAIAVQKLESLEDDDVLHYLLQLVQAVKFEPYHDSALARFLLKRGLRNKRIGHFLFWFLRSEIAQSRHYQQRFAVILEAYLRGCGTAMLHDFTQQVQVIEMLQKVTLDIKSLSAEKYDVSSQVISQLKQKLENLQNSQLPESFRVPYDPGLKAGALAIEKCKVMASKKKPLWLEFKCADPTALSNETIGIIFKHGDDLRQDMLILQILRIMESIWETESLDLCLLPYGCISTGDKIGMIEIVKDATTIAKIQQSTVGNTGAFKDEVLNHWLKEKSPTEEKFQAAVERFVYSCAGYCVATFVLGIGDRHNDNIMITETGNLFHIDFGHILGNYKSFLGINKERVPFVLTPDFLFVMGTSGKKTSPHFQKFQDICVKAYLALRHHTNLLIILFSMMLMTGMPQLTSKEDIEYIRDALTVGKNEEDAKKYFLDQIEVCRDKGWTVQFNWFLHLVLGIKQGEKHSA
UniProt O00443: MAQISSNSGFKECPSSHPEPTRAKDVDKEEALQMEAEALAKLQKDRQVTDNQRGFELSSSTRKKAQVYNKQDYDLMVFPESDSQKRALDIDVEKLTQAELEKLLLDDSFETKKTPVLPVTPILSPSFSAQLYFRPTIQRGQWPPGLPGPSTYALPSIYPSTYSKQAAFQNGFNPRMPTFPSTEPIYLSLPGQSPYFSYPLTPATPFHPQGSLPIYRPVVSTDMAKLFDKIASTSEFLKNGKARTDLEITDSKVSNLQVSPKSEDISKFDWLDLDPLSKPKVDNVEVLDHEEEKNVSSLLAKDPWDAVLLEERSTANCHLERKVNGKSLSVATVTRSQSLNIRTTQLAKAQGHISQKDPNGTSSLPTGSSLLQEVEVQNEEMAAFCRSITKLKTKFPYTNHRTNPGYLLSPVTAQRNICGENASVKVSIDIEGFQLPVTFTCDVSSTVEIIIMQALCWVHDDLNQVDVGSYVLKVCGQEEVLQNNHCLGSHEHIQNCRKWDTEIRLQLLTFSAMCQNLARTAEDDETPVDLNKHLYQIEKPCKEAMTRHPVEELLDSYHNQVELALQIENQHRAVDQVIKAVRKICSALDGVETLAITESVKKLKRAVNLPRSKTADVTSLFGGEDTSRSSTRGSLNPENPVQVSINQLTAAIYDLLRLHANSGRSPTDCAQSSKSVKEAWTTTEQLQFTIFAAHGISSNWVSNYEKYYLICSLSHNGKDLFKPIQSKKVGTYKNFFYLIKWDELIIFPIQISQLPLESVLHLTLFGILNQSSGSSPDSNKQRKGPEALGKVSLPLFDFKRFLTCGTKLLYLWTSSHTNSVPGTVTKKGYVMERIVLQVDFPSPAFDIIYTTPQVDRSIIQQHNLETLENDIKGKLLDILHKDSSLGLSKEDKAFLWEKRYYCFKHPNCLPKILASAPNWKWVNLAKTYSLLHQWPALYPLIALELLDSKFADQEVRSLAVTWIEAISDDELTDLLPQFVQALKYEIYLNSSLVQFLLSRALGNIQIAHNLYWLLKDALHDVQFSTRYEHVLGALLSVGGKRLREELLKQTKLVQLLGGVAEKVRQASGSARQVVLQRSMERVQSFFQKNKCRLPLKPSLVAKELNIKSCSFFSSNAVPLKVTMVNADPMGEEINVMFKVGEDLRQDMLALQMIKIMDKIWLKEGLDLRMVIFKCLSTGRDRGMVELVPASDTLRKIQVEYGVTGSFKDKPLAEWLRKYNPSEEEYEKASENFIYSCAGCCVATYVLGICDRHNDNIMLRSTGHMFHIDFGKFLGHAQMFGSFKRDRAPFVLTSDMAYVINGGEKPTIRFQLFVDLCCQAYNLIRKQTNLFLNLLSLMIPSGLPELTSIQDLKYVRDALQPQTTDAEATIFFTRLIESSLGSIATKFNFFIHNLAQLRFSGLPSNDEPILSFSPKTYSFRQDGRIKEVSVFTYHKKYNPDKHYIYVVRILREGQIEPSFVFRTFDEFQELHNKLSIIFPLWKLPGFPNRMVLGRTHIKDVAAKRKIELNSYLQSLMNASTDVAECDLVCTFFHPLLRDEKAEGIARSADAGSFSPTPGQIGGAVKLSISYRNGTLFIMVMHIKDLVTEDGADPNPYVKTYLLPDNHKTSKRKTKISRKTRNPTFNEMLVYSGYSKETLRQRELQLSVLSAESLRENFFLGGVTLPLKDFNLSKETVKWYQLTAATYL

[2] = compound: C[C@@H](Oc1cc(-c2cnn(C3CCNCC3)c2)cnc1N)c1c(Cl)ccc(F)c1Cl [crizotinib]
Summary of the method: as §1

[3] = compound: C[C@@H]1COCCN1C2=NC(=NC(=C2)C3(CC3)S(=O)(=O)C)C4=C5C=CNC5=CC=C4
Summary of the method: as §1

[4] = compound: C[C@H](C1=CC=C(C=C1)C(=O)NC2=C3C=CNC3=NC=C2)N
Summary of the method: as §1

[5] = compound: Cc1cc(Nc2cc(CN3CCOCC3)c3nc(C)c(Cc4ccc(Cl)cc4F)n3n2)n[nH]1 [gandotinib]
Summary of the method: as §1

[6] = compound: Cc1cc(SCc2sc(-c3ccc(C(F)(F)F)cc3)nc2C)ccc1OCC(=O)O
Summary of the method: as §1

[7] = compound: Cc1ccc(-n2nc(C(C)(C)C)cc2NC(=O)Nc2ccc(OCCN3CCOCC3)c3ccccc23)cc1 [doramapimod]
Summary of the method: as §1

[8] = compound: Cc1ccc(C(=O)N(CCCN)[C@@H](c2nc3cc(Cl)ccc3c(=O)n2Cc2ccccc2)C(C)C)cc1 [ispinesib]
Summary of the method: as §1

[9] = compound: Cc1ccc(NC(=O)c2ccc(CN3CC[C@H](N(C)C)C3)c(C(F)(F)F)c2)cc1Nc1nccc(-c2cncnc2)n1 [bafetinib]
Summary of the method: as §1

[10] = compound: Cc1cccc(CC(=O)N2CCc3c2ccc(-c2cn(C)c4ncnc(N)c24)c3F)n1
Summary of the method: as §1

[11] = compound: Cc1cn(-c2cc(NC(=O)c3ccc(C)c(Nc4nccc(-c5cccnc5)n4)c3)cc(C(F)(F)F)c2)cn1 [nilotinib]
Summary of the method: as §1

[12] = compound: Cc1nc(Nc2n[nH]c3c2CN(C(=O)N[C@H](CN(C)C)c2ccccc2)C3(C)C)c2sccc2n1
Summary of the method: as §1

[13] = compound: Cc1nc(Nc2ncc(C(=O)Nc3c(C)cccc3Cl)s2)cc(N2CCN(CCO)CC2)n1 [dasatinib]
Summary of the method: as §1

[14] = compound: Cc1ncc(-c2ccnc(Nc3ccc(S(C)(=O)=O)cc3)n2)n1C(C)C
Summary of the method: as §1

[15] = compound: Cn1cc(-c2ccc3c(c2)CCN3C(=O)Cc2cccc(C(F)(F)F)c2)c2c(N)ncnc21
Summary of the method: as §1

[16] = compound: Cn1cc(-c2ccc3nnc(C(F)(F)c4ccc5ncccc5c4)n3n2)cn1
Summary of the method: as §1

[17] = compound: Cn1cncc1[C@@](N)(c1ccc(Cl)cc1)c1ccc2c(c1)c(-c1cccc(Cl)c1)cc(=O)n2C [tipifarnib]
Summary of the method: as §1

[18] = compound: FC(F)(F)c1ccc(/C=C/c2nc(COc3ccc(CCCCn4ccnn4)cc3)co2)cc1 [mubritinib]
Summary of the method: as §1

[19] = compound: C[C@H](Nc1ncnc2nc[nH]c12)c1cc2cccc(Cl)c2c(=O)n1-c1ccccc1 [duvelisib]
Summary of the method: as §1

[20] = compound: Cc1cc(Nc2cc(N3CCN(C)CC3)nc(Sc3ccc(NC(=O)C4CC4)cc3)n2)n[nH]1 [tozasertib]
Summary of the method: as §1

Measured: log2 fold change

PLBD2 (UniProt Q8NHP8)
inactive: [1] 0.014 | [2] -0.07 | [3] 0.044 | [4] -0.008 | [5] 0.003 | [6] -0.028 | [7] 0.022 | [8] -0.088 | [9] -0.173 | [10] -0.056 | [11] -0.011 | [12] 0.024 | [13] -0.013 | [14] -0.052 | [15] 0.017 | [16] 0.044 | [17] 0.093 | [18] 0.056

PIGT (UniProt Q969N2)
inactive: [1] 0.033 | [2] 0.023 | [3] -0.017 | [4] 0.005 | [5] -0.029 | [6] 0.047 | [7] 0.036 | [8] 0 | [9] -0.042 | [10] 0 | [11] -0.029 | [12] 0.046 | [13] -0.031 | [14] -0.028 | [15] -0.011 | [16] 0.003 | [17] -0.029 | [18] -0.037

PITRM1 isoform 2 (UniProt Q5JRX3)
active: [8] -0.38
inactive: [1] -0.042 | [2] 0.01 | [3] 0.094 | [4] -0.023 | [5] 0.038 | [6] 0 | [7] -0.014 | [9] -0.052 | [10] -0.039 | [11] -0.108 | [12] 0.01 | [13] -0.132 | [14] -0.088 | [15] 0.119 | [16] -0.004 | [17] 0.003 | [18] 0.005

PHAX (UniProt Q9H814)
inactive: [1] -0.034 | [2] 0.097 | [3] -0.036 | [4] -0.01 | [5] 0.035 | [6] -0.062 | [7] -0.016 | [8] 0.017 | [9] -0.056 | [10] -0.117 | [11] 0.028 | [12] -0.176 | [13] 0.03 | [14] -0.096 | [15] -0.033 | [16] 0.006 | [17] 0.011 | [18] 0.013

PIP5K1C isoform 3 (UniProt O60331)
inactive: [1] 0.112 | [3] -0.082 | [19] 0.065 | [5] 0.056 | [20] 0.068 | [6] 0.11 | [9] -0.082 | [10] 0.087 | [13] 0.027

Looked up one by one from the list above (2):
PIP5K1C isoform 3 (UniProt O60331)
inactive: [1] 0.112 | [3] -0.082 | [19] 0.065 | [5] 0.056 | [20] 0.068 | [6] 0.11 | [9] -0.082 | [10] 0.087 | [13] 0.027

PLBD2 (UniProt Q8NHP8)
inactive: [1] 0.014 | [2] -0.07 | [3] 0.044 | [4] -0.008 | [5] 0.003 | [6] -0.028 | [7] 0.022 | [8] -0.088 | [9] -0.173 | [10] -0.056 | [11] -0.011 | [12] 0.024 | [13] -0.013 | [14] -0.052 | [15] 0.017 | [16] 0.044 | [17] 0.093 | [18] 0.056

Later entries.

PHKA1 (UniProt P46020)
inactive: [1] -0.036 | [2] -0.05 | [3] -0.048 | [4] 0.189 | [5] -0.015 | [6] 0.075 | [7] 0.037 | [8] -0.07 | [9] 0.023 | [10] -0.004 | [11] -0.233 | [12] -0.021 | [13] -0.303 | [14] 0.023 | [15] 0.027 | [16] -0.092 | [17] 0.083 | [18] -0.04

PIGX isoform 2 (UniProt Q8TBF5)
inactive: [1] 0.124 | [3] 0.053 | [4] -0.128 | [19] 0.039 | [5] 0.014 | [20] -0.019 | [6] -0.101 | [9] -0.041 | [10] 0.237 | [13] 0.037 | [15] 0.122 | [18] -0.151

PEX7 (UniProt O00628)
inactive: [1] -0.011 | [2] -0.037 | [3] 0.121 | [4] 0.024 | [5] -0.005 | [6] 0.145 | [7] 0.002 | [8] -0.078 | [9] 0.101 | [10] -0.025 | [11] -0.047 | [12] 0.048 | [13] -0.025 | [14] -0.007 | [15] 0.05 | [16] 0.04 | [17] 0.034 | [18] 0.085

PLA2G12A (UniProt Q9BZM1)
inactive: [1] -0.017 | [3] -0.43 | [4] -0.199 | [19] -0.136 | [5] -0.103 | [20] 0.024 | [6] -0.002 | [8] -0.038 | [9] -0.108 | [10] -0.076 | [11] -0.2 | [12] 0.015 | [13] -0.135 | [14] -0.149 | [15] -0.119 | [16] -0.129 | [17] 0.001 | [18] 0.152

PKM (UniProt P14618)
inactive: [1] 0.003 | [2] 0.021 | [3] 0.013 | [4] -0.044 | [5] -0.013 | [6] -0.029 | [7] -0.019 | [8] 0.02 | [9] -0.023 | [10] -0.012 | [11] -0.011 | [12] -0.004 | [13] 0.024 | [14] -0.009 | [15] 0.015 | [16] 0.006 | [17] 0.005 | [18] 0.035

PFAS (UniProt O15067)
inactive: [1] -0.062 | [2] 0.124 | [3] 0.014 | [4] 0 | [5] -0.152 | [6] 0.081 | [7] -0.018 | [8] 0.128 | [9] 0.033 | [10] 0.311 | [12] -0.113 | [13] -0.003 | [14] 0.059 | [16] 0.06 | [17] 0.018
active: [11] -0.359 | [15] 0.341 | [18] 0.52

PGGT1B (UniProt P53609)
inactive: [1] 0.093 | [2] 0.04 | [3] 0.002 | [4] -0.05 | [5] -0.011 | [6] -0.143 | [7] -0.028 | [8] 0.043 | [9] -0.069 | [10] -0.024 | [11] -0.007 | [12] -0.059 | [13] 0.075 | [14] 0.009 | [15] -0.027 | [16] 0.004 | [17] 0.134 | [18] 0.062

PLCL1 (UniProt Q15111)
inactive: [1] 0.112 | [2] -0.03 | [3] 0.074 | [4] -0.263 | [5] -0.14 | [7] -0.08 | [8] -0.162 | [9] -0.045 | [10] 0.039 | [11] -0.06 | [12] -0.197 | [14] -0.324 | [15] -0.116 | [16] 0.028 | [18] -0.018

PI4K2B (UniProt Q8TCG2)
active: [8] -0.355
inactive: [1] 0.06 | [2] -0.184 | [4] 0.118 | [5] -0.045 | [6] -0.016 | [7] 0.01 | [9] -0.084 | [10] 0 | [11] 0.124 | [12] -0.052 | [13] -0.101 | [14] -0.167 | [15] 0.11 | [16] 0.146 | [18] 0.053

PHC3 isoform 7 (UniProt Q8NDX5)
inactive: [1] -0.068 | [2] -0.194 | [3] 0.317 | [4] 0.073 | [7] 0.131 | [9] 0.222 | [11] -0.187 | [12] 0.01 | [14] 0 | [15] 0.018 | [17] -0.016 | [18] 0.191

PIK3CG (UniProt P48736)
inactive: [1] 0.187 | [2] -0.12 | [3] -0.078 | [7] 0.322

PKM isoform 2 (UniProt P14618)
inactive: [1] -0.053 | [2] -0.033 | [3] -0.154 | [5] 0.131 | [6] 0.12 | [7] 0.029 | [8] 0.016 | [9] -0.155 | [10] 0.029 | [11] 0.121 | [12] -0.104 | [13] -0.014 | [14] 0.198 | [16] 0.017 | [17] 0.209 | [18] 0.05

PIK3C2A (UniProt O00443)
inactive: [1] -0.002 | [2] 0.158 | [3] -0.325 | [7] -0.045 | [8] -0.457 | [11] -0.039 | [12] 0.247 | [14] 0.451 | [16] -0.278 | [18] 0.073

From the supplement of paper PMC10849652
